Data reported in article PMC4930482.
Results are given in words; binding and its absence hold for the method and conditions named. In cells and extracts the contact can be indirect. Some results given as binding are weak or reduced against the parent protein; the word gives no strength. For part of these data: Where a sequence is shown, tags or fusion partners need not be part of it.

Sequences of proteins named here, by UniProt entry; tags and fusion partners are left off.
UniProt Q9BY78: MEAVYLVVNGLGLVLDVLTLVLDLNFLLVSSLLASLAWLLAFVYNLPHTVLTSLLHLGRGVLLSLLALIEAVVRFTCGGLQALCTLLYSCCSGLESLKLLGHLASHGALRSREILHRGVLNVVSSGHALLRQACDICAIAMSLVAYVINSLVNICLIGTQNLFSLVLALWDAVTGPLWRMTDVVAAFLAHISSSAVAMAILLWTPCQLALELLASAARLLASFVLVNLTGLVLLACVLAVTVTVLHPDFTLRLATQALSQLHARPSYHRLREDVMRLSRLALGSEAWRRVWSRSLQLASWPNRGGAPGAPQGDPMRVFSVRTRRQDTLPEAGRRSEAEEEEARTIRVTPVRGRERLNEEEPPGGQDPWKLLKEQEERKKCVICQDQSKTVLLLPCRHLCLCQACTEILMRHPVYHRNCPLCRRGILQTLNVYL

What was measured:
[1] = molecular target: RNF26, wild type (coIP of Figures 5A and 5B) (UniProt Q9BY78); assay: co-IP; coIP in HEK293T cells; RNF26 or I382R with endogenous partners (Figure 5A) or with TOLLIP, SQSTM1 and their UBD mutants (Figure 5B); blots against whole-cell lysate controls
RFP-RNF26 = RFP-RNF26 (UniProt Q9BY78); assay: co-IP; complex formation between HA-RNF26 and GFP-TAX1BP1 or its mutants, and between RFP-RNF26 and FLAG-EPS15 or its mutant (Figure S5A); cells not named in the legend

binding [1] | binding (RFP-RNF26) | Binder
binds |  | USP15 (endogenous) (enzyme, UniProt Q9Y4E8 1-981) MAEGGAADLDTQRSDIATLLKTSLRKGDTWYLVDSRWFKQWKKYVGFDSWDKYQMGDQNVYPGPIDNSGLLKDGDAQSLKEHLIDELDYILLPTEGWNKLVSWYTLMEGQEPIARKVVEQGMFVKHCKVEVYLTELKLCENGNMNNVVTRRFSKADTIDTIEKEIRKIFSIPDEKETRLWNKYMSNTFEPLNKPDSTIQDAGLYQGQVLVIEQKNEDGTWPRGPSTPKSPGASNFSTLPKISPSSLSNNYNNMNNRNVKNSNYCLPSYTAYKNYDYSEPGRNNEQPGLCGLSNLGNTCFMNSAIQCLSNTPPLTEYFLNDKYQEELNFDNPLGMRGEIAKSYAELIKQMWSGKFSYVTPRAFKTQVGRFAPQFSGYQQQDCQELLAFLLDGLHEDLNRIRKKPYIQLKDADGRPDKVVAEEAWENHLKRNDSIIVDIFHGLFKSTLVCPECAKISVTFDPFCYLTLPLPMKKERTLEVYLVRMDPLTKPMQYKVVVPKIGNILDLCTALSALSGIPADKMIVTDIYNHRFHRIFAMDENLSSIMERDDIYVFEININRTEDTEHVIIPVCLREKFRHSSYTHHTGSSLFGQPFLMAVPRNNTEDKLYNLLLLRMCRYVKISTETEETEGSLHCCKDQNINGNGPNGIHEEGSPSEMETDEPDDESSQDQELPSENENSQSEDSVGGDNDSENGLCTEDTCKGQLTGHKKRLFTFQFNNLGNTDINYIKDDTRHIRFDDRQLRLDERSFLALDWDPDLKKRYFDENAAEDFEKHESVEYKPPKKPFVKLKDCIELFTTKEKLGAEDPWYCPNCKEHQQATKKLDLWSLPPVLVVHLKRFSYSRYMRDKLDTLVDFPINDLDMSEFLINPNAGPCRYNLIAVSNHYGGMGGGHYTAFAKNKDDGKWYYFDDSSVSTASEDQIVSKAAYVLFYQRQDTFSGTGFFPLDRETKGASAATGIPLESDEDSNDNDNDIENENCMHTN
binds |  | EPS15 (endogenous) (protein, UniProt P42566 1-896) MAAAAQLSLTQLSSGNPVYEKYYRQVDTGNTGRVLASDAAAFLKKSGLPDLILGKIWDLADTDGKGILNKQEFFVALRLVACAQNGLEVSLSSLNLAVPPPRFHDTSSPLLISGTSAAELPWAVKPEDKAKYDAIFDSLSPVNGFLSGDKVKPVLLNSKLPVDILGRVWELSDIDHDGMLDRDEFAVAMFLVYCALEKEPVPMSLPPALVPPSKRKTWVVSPAEKAKYDEIFLKTDKDMDGFVSGLEVREIFLKTGLPSTLLAHIWSLCDTKDCGKLSKDQFALAFHLISQKLIKGIDPPHVLTPEMIPPSDRASLQKNIIGSSPVADFSAIKELDTLNNEIVDLQREKNNVEQDLKEKEDTIKQRTSEVQDLQDEVQRENTNLQKLQAQKQQVQELLDELDEQKAQLEEQLKEVRKKCAEEAQLISSLKAELTSQESQISTYEEELAKAREELSRLQQETAELEESVESGKAQLEPLQQHLQDSQQEISSMQMKLMEMKDLENHNSQLNWCSSPHSILVNGATDYCSLSTSSSETANLNEHVEGQSNLESEPIHQESPARSSPELLPSGVTDENEVTTAVTEKVCSELDNNRHSKEEDPFNVDSSSLTGPVADTNLDFFQSDPFVGSDPFKDDPFGKIDPFGGDPFKGSDPFASDCFFRQSTDPFATSSTDPFSAANNSSITSVETLKHNDPFAPGGTVVAASDSATDPFASVFGNESFGGGFADFSTLSKVNNEDPFRSATSSSVSNVVITKNVFEETSVKSEDEPPALPPKIGTPTRPCPLPPGKRSINKLDSPDPFKLNDPFQPFPGNDSPKEKDPEIFCDPFTSATTTTNKEADPSNFANFSAYPSEEDMIEWAKRESEREEEQRLARLNQQEQEDLELAIALSKSEISEA
 | binds | FLAG-EPS15 (protein, UniProt P42566 1-896) MAAAAQLSLTQLSSGNPVYEKYYRQVDTGNTGRVLASDAAAFLKKSGLPDLILGKIWDLADTDGKGILNKQEFFVALRLVACAQNGLEVSLSSLNLAVPPPRFHDTSSPLLISGTSAAELPWAVKPEDKAKYDAIFDSLSPVNGFLSGDKVKPVLLNSKLPVDILGRVWELSDIDHDGMLDRDEFAVAMFLVYCALEKEPVPMSLPPALVPPSKRKTWVVSPAEKAKYDEIFLKTDKDMDGFVSGLEVREIFLKTGLPSTLLAHIWSLCDTKDCGKLSKDQFALAFHLISQKLIKGIDPPHVLTPEMIPPSDRASLQKNIIGSSPVADFSAIKELDTLNNEIVDLQREKNNVEQDLKEKEDTIKQRTSEVQDLQDEVQRENTNLQKLQAQKQQVQELLDELDEQKAQLEEQLKEVRKKCAEEAQLISSLKAELTSQESQISTYEEELAKAREELSRLQQETAELEESVESGKAQLEPLQQHLQDSQQEISSMQMKLMEMKDLENHNSQLNWCSSPHSILVNGATDYCSLSTSSSETANLNEHVEGQSNLESEPIHQESPARSSPELLPSGVTDENEVTTAVTEKVCSELDNNRHSKEEDPFNVDSSSLTGPVADTNLDFFQSDPFVGSDPFKDDPFGKIDPFGGDPFKGSDPFASDCFFRQSTDPFATSSTDPFSAANNSSITSVETLKHNDPFAPGGTVVAASDSATDPFASVFGNESFGGGFADFSTLSKVNNEDPFRSATSSSVSNVVITKNVFEETSVKSEDEPPALPPKIGTPTRPCPLPPGKRSINKLDSPDPFKLNDPFQPFPGNDSPKEKDPEIFCDPFTSATTTTNKEADPSNFANFSAYPSEEDMIEWAKRESEREEEQRLARLNQQEQEDLELAIALSKSEISEA
